This is an account of results in article PMC7819943, “Rice protein-binding microarrays: a tool to detect cis-acting elements near promoter regions in rice”.

The list shows a part of the results.

The experiment has as its target T1, OsSMF1 (Oryza sativa, UniProt Q6ZLB0 1-436).
T1 sequence: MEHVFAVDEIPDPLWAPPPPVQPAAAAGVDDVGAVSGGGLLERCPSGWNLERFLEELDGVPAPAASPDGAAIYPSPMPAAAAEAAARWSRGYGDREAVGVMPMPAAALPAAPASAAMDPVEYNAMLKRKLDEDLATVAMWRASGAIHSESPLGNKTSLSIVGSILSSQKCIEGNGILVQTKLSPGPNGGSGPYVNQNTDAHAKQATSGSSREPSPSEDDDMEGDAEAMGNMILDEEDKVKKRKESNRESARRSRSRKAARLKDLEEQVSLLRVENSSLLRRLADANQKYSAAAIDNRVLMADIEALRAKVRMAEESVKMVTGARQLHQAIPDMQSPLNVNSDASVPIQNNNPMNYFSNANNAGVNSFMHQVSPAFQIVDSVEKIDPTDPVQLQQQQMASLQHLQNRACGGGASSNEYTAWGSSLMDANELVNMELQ
Put plainly: protein-binding microarray (RPBM); PBS, 2% BSA, 51.3 ng/ul salmon testes DNA, 50 uM zinc acetate, 200 nM TF, 25 C, 1 h; high values mean tight binding. The following applies: protein: recombinant; tags: N-terminal polyhistidine and DsRed monomer fusion (pET32a); chain copies: 2; label: CyDye5-dUTP incorporated in the synthesized complementary strand; 3' TTTTT single-stranded linker to array surface; dsDNA, one strand shown. The method in brief: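 In PBS with 2% BSA, salmon testes DNA and 50 µM zinc acetate, 200 nM protein was incubated on a custom Agilent array at 25 °C for 1 h and then washed off. The array had been made double-stranded by primer extension with Cy5-dUTP and blocked with 2% BSA. The proteins were transcription factors fused N-terminally to polyhistidine and DsRed, expressed in E. coli BL21-CodonPlus and purified on Ni–NTA. The binding signal is per-feature fluorescence intensity (arbitrary units) from an Axon 4000B scanner.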
On to “TGTCCTAATTAACCCGTCAGTCCACTTCTCCTTCTTCTTCCGGAGTCACCTAGTGCAG”, for which the binding signal is 3710 fluorescence intensity (a.u.).

“TCAATCTGGCGGGGTTTATTTGTGACCCTCGATCGGTCAACGGAGTCACCTAGTGCAG”: the binding signal was 4060 fluorescence intensity (a.u.).

With “CATCTGAACTGAAGGCCCAATACGTCAGCGAGGGACGGCCCGGAGTCACCTAGTGCAG”, the binding signal was 5780 fluorescence intensity (a.u.).

Turning to “CATGTTTGGCAGTGTTCGTTCCCACGTTTCGATATAGCGACGGAGTCACCTAGTGCAG”, the binding signal is 3360 fluorescence intensity (a.u.).

On to “TTGAGAGACTTTGATGCTGAATCAATGACTCACATGTGCTCGGAGTCACCTAGTGCAG”, for which the binding signal is 10300 fluorescence intensity (a.u.).

Consider “TAATGCCACCTAAGCGCCACGTCAACGTCGCGTGTAAAGGCGGAGTCACCTAGTGCAG”, for which the binding signal was 28800 fluorescence intensity (a.u.).

Take “ATTGAACATTCGTCGCAGAGAGGAATGCACTGCCGCGTGGCGGAGTCACCTAGTGCAG”: the binding signal was 3530 fluorescence intensity (a.u.).

“TTAGATTATTGAGTCAGATTACTATAAGCTAGATTATTATCGGAGTCACCTAGTGCAG”: the binding signal is 3770 fluorescence intensity (a.u.).

Take “ATCGGCAGAGGCGACACCAGCGTGCCTCCACATCGGCTTCCGGAGTCACCTAGTGCAG”: the binding signal was 3990 fluorescence intensity (a.u.).

On to “GGGCAGATCCGGCGCCCGACGCCGGCGGATCCGCCGTCGTCGGAGTCACCTAGTGCAG”, for which the binding signal is 32500 fluorescence intensity (a.u.).

Consider “ATTTTACAATGTGTAGTATGCATTCGTTGTCAATCTTTCTCGGAGTCACCTAGTGCAG”, for which the binding signal is 3650 fluorescence intensity (a.u.).

On to “ATGAGAGATAGATGACACGTCAGAAGCCAGAGCGAATTGGCGGAGTCACCTAGTGCAG”, for which the binding signal was 11500 fluorescence intensity (a.u.).

With “TAATTCGGGTGGTTGAGTAGCGCGCGTGGCGTAATTGCTGCGGAGTCACCTAGTGCAG”, the binding signal was 3830 fluorescence intensity (a.u.).

Take “GCTGGATTTCCTACTAATGTTAGTGAGAACACTCTAGAAACGGAGTCACCTAGTGCAG”: the binding signal is 4370 fluorescence intensity (a.u.).

On to “ATATGCAGGGCCGAATGTGGAAGACGATATATGCGCTTAACGGAGTCACCTAGTGCAG”, for which the binding signal was 22100 fluorescence intensity (a.u.).

For the sequence “CAGTCAGTCAGTAGGTTCCCAGAATTTTCTCCCTGCAAACCGGAGTCACCTAGTGCAG”, the binding signal is 50200 fluorescence intensity (a.u.).

As to “ACTGCCACTACCACTACCACTACCACTACCACCACCACACCGGAGTCACCTAGTGCAG”, the binding signal was 4090 fluorescence intensity (a.u.).

Consider “GAATCAATTGTCCATTGGATTATCGCAGCTGCAATCAGTGCGGAGTCACCTAGTGCAG”, for which the binding signal was 3290 fluorescence intensity (a.u.).

For the sequence “TCCCAATCAAATTGCCATGTAAGGGCCACGTTGGGACGAACGGAGTCACCTAGTGCAG”, the binding signal was 4600 fluorescence intensity (a.u.).

As for “CTTCCGGGTGACTTGCTGAGTAATGTGGTTGTACTTATTCCGGAGTCACCTAGTGCAG”, the binding signal was 4170 fluorescence intensity (a.u.).

For “GTTGCGCACTTTATATATACACGTAGCAAACGGTTCAATTCGGAGTCACCTAGTGCAG”, the binding signal was 3950 fluorescence intensity (a.u.).

Turning to “CTCGGCCGCGGCCGGGGCACCGGAAGAGGGACCTCAGCGGCGGAGTCACCTAGTGCAG”, the binding signal is 26500 fluorescence intensity (a.u.).

For the sequence “TCGTCCCGCCTCCCTGCCTCGCTCGCAGCACCGCCGGGTCCGGAGTCACCTAGTGCAG”, the binding signal is 3430 fluorescence intensity (a.u.).

For “CCGGCGCGCTACCCTCGCTTTCGCTTGCTGCAAGAGCGCACGGAGTCACCTAGTGCAG”, the binding signal was 3240 fluorescence intensity (a.u.).

As for “TCTAAATTCTTATATTTTGGGATGGAAAGAGTATATGTTACGGAGTCACCTAGTGCAG”, the binding signal is 7380 fluorescence intensity (a.u.).

As for “CATACGGTAATCCCAGCCGCCTGCGTCACCTTCTGAATCGCGGAGTCACCTAGTGCAG”, the binding signal was 8760 fluorescence intensity (a.u.).

As to “TGGATGCAGTTTCAATGAACCCCGCGTCACACTGGGGACTCGGAGTCACCTAGTGCAG”, the binding signal was 4460 fluorescence intensity (a.u.).

Regarding “CCCAAATTGCATATGTGCATCTTGCCATGGTGCCATGGCACGGAGTCACCTAGTGCAG”, the binding signal is 11600 fluorescence intensity (a.u.).

With “ATATACTTGGATTCGTAACATACGGAAATACCGCATACCACGGAGTCACCTAGTGCAG”, the binding signal is 13700 fluorescence intensity (a.u.).

Consider “GTGTAGTTACCTTCTCGTAGGTGTCATCGAGGATGATGGCCGGAGTCACCTAGTGCAG”, for which the binding signal is 3910 fluorescence intensity (a.u.).

“TGCCGTTGCTTACACGCGCACCAATTGACACCTACAGTAACGGAGTCACCTAGTGCAG”: the binding signal was 3940 fluorescence intensity (a.u.).

As to “CTTGCTGTCGCGGCCATAGATACGCGTACTGACGGAAGAACGGAGTCACCTAGTGCAG”, the binding signal is 3260 fluorescence intensity (a.u.).

Turning to “TGAGCCGGAACGGTAATGTAGCTGACGTGCAGGTTGTTTTCGGAGTCACCTAGTGCAG”, the binding signal was 6940 fluorescence intensity (a.u.).

For “CCTCTAGCTCTTGCATCGTGTCGTTTCTTTAGCTGCGTGTCGGAGTCACCTAGTGCAG”, the binding signal was 3970 fluorescence intensity (a.u.).

Take “TTGGAAGCCACACGCACGTCGGCTGCTGTATAGGGCCCATCGGAGTCACCTAGTGCAG”: the binding signal was 3590 fluorescence intensity (a.u.).

Take “TGGTGGTGACCCATTACCAAGAAACACACACCGTCGTCCACGGAGTCACCTAGTGCAG”: the binding signal is 3980 fluorescence intensity (a.u.).

As for “AAAAGGAGAGATATCATTAAGAAGTAAAGTGGCCCATGTTCGGAGTCACCTAGTGCAG”, the binding signal is 30100 fluorescence intensity (a.u.).

Turning to “TCCCCTTCCTGTCCACACAAACCTGCCTCTTCCGACCCATCGGAGTCACCTAGTGCAG”, the binding signal is 3380 fluorescence intensity (a.u.).

Consider “TTCATTGGAGAGTGTAAGTGTTCAGGGTCAACGGAAAGAGCGGAGTCACCTAGTGCAG”, for which the binding signal is 3710 fluorescence intensity (a.u.).

As to “GTGGTGAAGTTGTCGACGTGGCACACCATCGAGCCGCTCACGGAGTCACCTAGTGCAG”, the binding signal is 15200 fluorescence intensity (a.u.).

On to “CATGCCGTCCCGTCGGCGCCGGTGACGTCGCGCGCCGACTCGGAGTCACCTAGTGCAG”, for which the binding signal is 3270 fluorescence intensity (a.u.).

“ATGCCAATTGCAAAGAGAGTGAGGCCTCACGGGGAGCGTGCGGAGTCACCTAGTGCAG”: the binding signal is 35700 fluorescence intensity (a.u.).
